The values that follow come from the supplement of paper PMC6411743.

Chains of the proteins cited; added tags and fusions are not shown. Lines headed by an entry give the natural chain unless they say otherwise; changes in a name come on top.
UniProt P08397: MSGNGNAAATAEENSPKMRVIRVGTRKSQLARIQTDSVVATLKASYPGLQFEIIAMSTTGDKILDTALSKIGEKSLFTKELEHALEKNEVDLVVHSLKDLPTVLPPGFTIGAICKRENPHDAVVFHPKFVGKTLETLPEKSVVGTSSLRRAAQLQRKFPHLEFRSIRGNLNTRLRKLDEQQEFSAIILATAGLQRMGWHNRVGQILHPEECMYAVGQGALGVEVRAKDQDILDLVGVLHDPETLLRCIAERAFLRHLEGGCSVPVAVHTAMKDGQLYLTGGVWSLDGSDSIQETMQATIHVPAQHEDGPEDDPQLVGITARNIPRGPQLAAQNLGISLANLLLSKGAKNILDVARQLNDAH
UniProt P54105: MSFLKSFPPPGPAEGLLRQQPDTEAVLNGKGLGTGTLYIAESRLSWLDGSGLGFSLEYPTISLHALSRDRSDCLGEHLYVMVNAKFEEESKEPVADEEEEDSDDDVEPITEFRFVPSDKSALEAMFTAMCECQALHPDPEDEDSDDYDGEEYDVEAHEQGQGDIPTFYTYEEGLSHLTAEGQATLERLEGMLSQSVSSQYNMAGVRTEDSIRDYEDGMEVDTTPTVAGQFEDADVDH
UniProt P18887, whole entry: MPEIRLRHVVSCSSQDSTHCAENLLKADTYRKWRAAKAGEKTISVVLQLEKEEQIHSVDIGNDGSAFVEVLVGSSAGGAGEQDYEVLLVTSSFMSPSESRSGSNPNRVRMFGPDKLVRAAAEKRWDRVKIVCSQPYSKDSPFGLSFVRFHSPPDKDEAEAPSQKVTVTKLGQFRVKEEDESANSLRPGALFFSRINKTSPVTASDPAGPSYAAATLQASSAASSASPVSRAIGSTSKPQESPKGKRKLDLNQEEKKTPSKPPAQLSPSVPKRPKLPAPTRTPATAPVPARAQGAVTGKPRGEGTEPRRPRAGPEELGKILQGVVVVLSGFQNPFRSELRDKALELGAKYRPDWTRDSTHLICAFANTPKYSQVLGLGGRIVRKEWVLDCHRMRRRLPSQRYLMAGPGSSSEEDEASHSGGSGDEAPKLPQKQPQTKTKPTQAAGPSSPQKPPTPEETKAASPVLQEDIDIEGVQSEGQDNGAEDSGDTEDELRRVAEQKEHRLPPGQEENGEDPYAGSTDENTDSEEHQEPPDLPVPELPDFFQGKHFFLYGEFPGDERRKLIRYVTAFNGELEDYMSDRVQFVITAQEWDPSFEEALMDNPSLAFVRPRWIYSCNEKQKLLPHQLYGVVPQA
UniProt O43795: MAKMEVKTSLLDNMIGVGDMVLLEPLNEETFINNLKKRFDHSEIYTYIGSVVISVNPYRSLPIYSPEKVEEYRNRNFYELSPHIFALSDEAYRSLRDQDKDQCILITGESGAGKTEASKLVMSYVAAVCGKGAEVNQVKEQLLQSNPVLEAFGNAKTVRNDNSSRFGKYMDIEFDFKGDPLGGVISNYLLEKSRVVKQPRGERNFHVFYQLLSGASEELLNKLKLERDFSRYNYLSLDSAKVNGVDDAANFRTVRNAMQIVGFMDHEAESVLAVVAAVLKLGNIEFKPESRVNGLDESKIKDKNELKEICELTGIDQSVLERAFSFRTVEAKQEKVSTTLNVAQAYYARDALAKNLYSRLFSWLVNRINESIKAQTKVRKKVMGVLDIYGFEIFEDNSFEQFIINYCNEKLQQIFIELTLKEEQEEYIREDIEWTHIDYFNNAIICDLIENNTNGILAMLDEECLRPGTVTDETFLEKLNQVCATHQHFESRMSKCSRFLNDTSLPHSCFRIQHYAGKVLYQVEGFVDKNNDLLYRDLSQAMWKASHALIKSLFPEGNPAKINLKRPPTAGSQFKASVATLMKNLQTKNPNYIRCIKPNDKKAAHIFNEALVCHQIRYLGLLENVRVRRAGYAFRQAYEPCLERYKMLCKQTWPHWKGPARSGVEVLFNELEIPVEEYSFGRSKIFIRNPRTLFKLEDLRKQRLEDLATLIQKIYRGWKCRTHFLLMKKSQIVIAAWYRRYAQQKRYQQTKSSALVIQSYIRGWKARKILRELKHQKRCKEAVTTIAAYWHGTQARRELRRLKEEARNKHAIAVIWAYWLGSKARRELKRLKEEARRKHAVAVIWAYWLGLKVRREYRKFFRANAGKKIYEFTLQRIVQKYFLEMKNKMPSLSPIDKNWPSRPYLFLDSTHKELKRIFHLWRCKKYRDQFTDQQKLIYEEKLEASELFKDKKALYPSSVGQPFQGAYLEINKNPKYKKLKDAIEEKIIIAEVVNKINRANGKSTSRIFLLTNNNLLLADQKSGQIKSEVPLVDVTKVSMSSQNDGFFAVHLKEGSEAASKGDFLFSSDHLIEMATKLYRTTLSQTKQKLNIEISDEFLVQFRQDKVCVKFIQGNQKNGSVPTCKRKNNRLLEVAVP
UniProt O94830: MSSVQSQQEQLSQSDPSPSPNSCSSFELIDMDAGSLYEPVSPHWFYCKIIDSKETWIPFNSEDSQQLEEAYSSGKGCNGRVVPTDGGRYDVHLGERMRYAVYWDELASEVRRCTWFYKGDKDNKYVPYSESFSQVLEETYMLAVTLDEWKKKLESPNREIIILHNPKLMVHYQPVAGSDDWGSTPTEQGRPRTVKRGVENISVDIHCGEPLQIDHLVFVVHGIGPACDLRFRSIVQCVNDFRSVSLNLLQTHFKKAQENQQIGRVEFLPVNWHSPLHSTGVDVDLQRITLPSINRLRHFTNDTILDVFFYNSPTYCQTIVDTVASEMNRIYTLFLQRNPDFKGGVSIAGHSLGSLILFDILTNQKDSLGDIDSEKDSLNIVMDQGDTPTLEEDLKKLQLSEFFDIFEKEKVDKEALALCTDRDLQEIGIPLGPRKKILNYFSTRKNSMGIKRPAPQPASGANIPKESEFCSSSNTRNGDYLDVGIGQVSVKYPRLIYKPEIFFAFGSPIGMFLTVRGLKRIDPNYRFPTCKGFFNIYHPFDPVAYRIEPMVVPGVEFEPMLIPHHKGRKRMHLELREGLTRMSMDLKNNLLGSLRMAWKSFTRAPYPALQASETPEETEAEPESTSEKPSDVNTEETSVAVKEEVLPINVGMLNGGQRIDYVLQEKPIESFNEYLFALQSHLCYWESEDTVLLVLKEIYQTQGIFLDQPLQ

Compound in the test: Nc1nc2c(ncn2[C@@H]2O[C@H](COP(=O)(O)OP(=O)(O)OP(=O)(O)O)[C@@H](O)[C@H]2O)c(=O)[nH]1 [guanosine triphosphate]
As to the kind of experiment: NP40-soluble protein abundance relative to vehicle (solubility fold change) (ratio); higher = more soluble protein in presence of GTP. The protocol: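 Solubility proteome profiling in Jurkat crude lysate. Lysate was treated with Mg-GTP (0.1-10 mM) for 10 min at room temperature and 3 min at 37 °C, then solubilised with 0.8% NP40 and benzonase, followed by ultracentrifugation. Proteins were quantified by TMT10 LC-MS/MS; the value is the NP40-soluble abundance relative to the NP40-processed vehicle, from 3 independent experiments.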

± gives the standard deviation of the averaged measurements. The list shows a part of the results.

Take “F5H226 and related entries (UniProt P08397)”: the NP40-soluble protein abundance (concentration: 0.1mM) worked out at 0.991 ± 0.055; the NP40-soluble protein abundance (concentration: 0.5mM) was determined as 1 ± 0.057; the NP40-soluble protein abundance (concentration: 1mM) was determined as 0.948 ± 0.07; the NP40-soluble protein abundance (concentration: 2mM) worked out at 0.927 ± 0.071; the NP40-soluble protein abundance (concentration: 4mM) is 0.897 ± 0.063; the NP40-soluble protein abundance (concentration: 6mM) is 0.902 ± 0.058. Also, the NP40-soluble protein abundance by setting is: (concentration: 8mM) 0.914 ± 0.078; (concentration: 10mM) 0.889 ± 0.075.

“E9PMI6 and related entries (UniProt P54105)”: the NP40-soluble protein abundance by setting is: (concentration: 0.1mM) 0.987 ± 0.032; (concentration: 0.5mM) 0.914 ± 0.04; (concentration: 1mM) 1.03 ± 0.037; (concentration: 2mM) 1.01 ± 0.036; (concentration: 4mM) 1.03 ± 0.021; (concentration: 6mM) 1.01 ± 0.052. The NP40-soluble protein abundance is, setting by setting: (concentration: 8mM) 0.991 ± 0.038; (concentration: 10mM) 1.03 ± 0.017.

Regarding “F5H8D7 and related entries (UniProt P18887)”, the NP40-soluble protein abundance stood at 0.976 ± 0.073 (concentration: 0.1mM); 1.02 ± 0.085 (concentration: 0.5mM); 1.04 ± 0.081 (concentration: 1mM); 1 ± 0.1 (concentration: 2mM); 1.03 ± 0.098 (concentration: 4mM); 1.06 ± 0.1 (concentration: 6mM). Moreover, the NP40-soluble protein abundance by setting is: (concentration: 8mM) 1.13 ± 0.1; (concentration: 10mM) 1.1 ± 0.12.

As for “E9PDF6 and related entries (UniProt O43795)”, the NP40-soluble protein abundance by setting is: (concentration: 0.1mM) 1.44 ± 0.25; (concentration: 0.5mM) 2.35 ± 0.38; (concentration: 1mM) 2.32 ± 0.37; (concentration: 2mM) 2.41 ± 0.43; (concentration: 4mM) 2.4 ± 0.41; (concentration: 6mM) 2.37 ± 0.38. For the same target, the NP40-soluble protein abundance is, setting by setting: (concentration: 8mM) 2.33 ± 0.3; (concentration: 10mM) 2.21 ± 0.26.

Consider “E9PK57 and related entries (UniProt O94830)”, for which the NP40-soluble protein abundance (concentration: 0.1mM) stood at 1.03 ± 0.047; the NP40-soluble protein abundance (concentration: 0.5mM) is 1.09 ± 0.081; the NP40-soluble protein abundance (concentration: 1mM) turned out to be 1.01 ± 0.018; the NP40-soluble protein abundance (concentration: 2mM) is 1.04 ± 0.025; the NP40-soluble protein abundance (concentration: 4mM) stood at 1 ± 0.055; the NP40-soluble protein abundance (concentration: 6mM) amounted to 0.9946 ± 0.0036. Besides, the NP40-soluble protein abundance by setting is: (concentration: 8mM) 0.987 ± 0.026; (concentration: 10mM) 0.984 ± 0.057.
